Experimental data from PubChem BioAssay AID1487 (National Center for Advancing Translational Sciences (NCATS), 2009).
The list shows a part of the results. Shown are side measurements of this screen, not its main read-out; they come without a call. The list favours compounds with an active or inconclusive main result. The note in brackets gives the kind of curve behind each potency; many fits are weak.

Assay: qHTS Assay for Modulators of Lamin A Splicing
Conditions: HeLa LMNA splicing GFP/RFP minigene ratio, 48 h
Method in brief: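 S3 HeLa stable clones carrying a lamin A-EGFP splicing minigene plus DsRed2 were seeded at 600 cells/well in Opti-MEM with 2% FBS, pin-dosed and incubated 48 h at 37°C. Acumen cytometry (488 nm) gave the GFP/RFP total-intensity ratio.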

[1] = measured here: GFP splicing reporter channel
[2] = measured here: RFP viability control channel

SMILES	AC50 [1]	AC50 [2]
COc1ccc(Cl)cc1N(C)C(=O)CCc1nc(-c2ccc(C)cc2)no1	11.2 µM [rising, partial curve]	17.8 µM [rising, single point]
Cc1cccc(C2(c3cccc(C)c3)OC(=O)c3ccccc32)c1	11.2 µM [rising, single point]	15.8 µM [rising, single point]
COC(=O)c1cc(-c2ccc(OC)cc2)n[nH]1	–	0.794 µM [rising, full curve, poor fit]
O=C(CSc1nc2c([nH]c3ccccc32)c(=O)n1-c1ccccc1F)Nc1cccc(C(F)(F)F)c1	–	0.891 µM [falling, partial curve]
O=C(/C=C/c1cccs1)NC(=S)NNC(=O)c1ccccc1O	–	20 µM [rising, partial curve]
CCOC(=O)Cn1cc(/C=C/[N+](=O)[O-])c2ccccc21	35.5 µM [falling, partial curve, poor fit]	–
COC(=O)CNC(=O)C(NC(=O)OCc1ccccc1)C(C)C (stereo not drawn)	–	6.31 µM [falling, partial curve, poor fit]
CC(CNC(=O)COc1ccccc1)OC(=O)Nc1cccc(Cl)c1 (stereo not drawn)	–	11.2 µM [rising, partial curve, poor fit]
CCc1ccc(NC(=O)Cc2ccc(OC)cc2)cc1	17.8 µM [rising, partial curve, poor fit]	11.2 µM [rising, partial curve, poor fit]
Cc1ccccc1OCC(O)CN1CCN(CCN2C(=O)c3cccc4cccc(c34)C2=O)CC1 (stereo not drawn)	–	31.6 µM [rising, single point]
CCN1CCN(C(=O)c2ccc(Sc3ccccc3Cl)c([N+](=O)[O-])c2)CC1	–	11.2 µM [rising, partial curve]
Cc1ccccc1-c1ccc2ncnc(N(C)C)c2c1	17.8 µM [falling, single point]	–
Cc1nc(NC(=O)c2cc3c(s2)CCCCC3)sc1C(=O)N(C)C	–	14.1 µM [rising, single point]
COc1ccc(CCNc2oc(Cc3cccc4ccccc34)nc2C#N)cc1OC	14.1 µM [rising, partial curve]	15.8 µM [rising, single point]
O=C(Nc1ccccc1)Nc1nnc(SCC(=O)N2CCCCC2)s1	15.8 µM [falling, single point]	8.91 µM [falling, partial curve, poor fit]
CC1CC1c1ccc(/C=C(\C#N)C(=O)Nc2ccc(Cl)cc2Cl)o1 (stereo not drawn)	35.5 µM [rising, single point]	35.5 µM [rising, single point]
CC1=C(c2ccc(C)c(C)c2)S(=O)(=O)N(Cc2ccc(C(=O)Nc3cc(F)ccc3F)cc2)C1=O	0.00501 µM [falling, full curve, poor fit]	2.51 µM [rising, partial curve]
CCC(=O)Nc1c(S(=O)(=O)c2ccc(C)cc2)c2nc3ccccc3nc2n1C(C)c1ccccc1 (stereo not drawn)	–	2.82 µM [rising, single point]

SMILES	AC50 [1]	AC50 [2]
Cc1ccc2c(c1)C(=O)OC(C(=O)Nc1ccccc1C(=O)O)C2 (stereo not drawn)	–	3.98 µM [falling, full curve, poor fit]
COc1cccc2c1OC1(C)CC2N(C(=O)c2ccco2)C(=S)N1c1ccc(F)cc1 (stereo not drawn)	–	6.31 µM [falling, single point]
CCOc1ccc(-n2cc(-c3ccccc3)c3c(NC4CCCC4)ncnc32)cc1	0.0355 µM [falling, full curve, poor fit]	–
COC(=O)c1cccc(NS(=O)(=O)c2ccc(OC)c(OC)c2)c1C	11.2 µM [rising, partial curve]	14.1 µM [rising, partial curve]
Cc1ccc2cc(/C=C(\C#N)C(N)=O)c(N3CCCCC3)nc2c1	11.2 µM [rising, partial curve]	11.2 µM [rising, partial curve]
COc1ccc(-n2cc(C(=O)O)c(=O)cc2C)cc1	2.24 µM [falling, full curve, poor fit]	–
Cn1nc(-c2ccccc2)c(CSc2ccccc2Cl)c1Cl	20 µM [falling, single point]	–
O=C(Oc1c(Cl)cc(Cl)c2cccnc12)c1cccs1	–	12.6 µM [rising, partial curve, poor fit]
O=C(NCCCN1CCN(c2cccc(Cl)c2)CC1)c1ccc2nc(Cc3ccccc3)oc2c1	20 µM [falling, partial curve]	11.2 µM [falling, partial curve]
O=C(O)c1cccnc1SCc1ccccc1Cl	11.2 µM [falling, single point]	–
Cc1ccc2nc(NC(=O)c3ccc(S(=O)(=O)N4CCC(C)CC4)cc3)sc2c1	0.631 µM [rising, single point]	–
CCOC(=O)CCc1c(C)c2ccc(OCc3cc([N+](=O)[O-])ccc3OC)cc2oc1=O	20 µM [rising, single point]	–
COCCn1c(C)cc(/C=C2\NC(=S)N(C)C2=O)c1C	0.251 µM [rising, partial curve, poor fit]	0.316 µM [rising, full curve]
Cc1ccc(N(CC(O)Cn2c3ccccc3c3ccccc32)S(C)(=O)=O)c(C)c1 (stereo not drawn)	–	7.08 µM [rising, partial curve]
CCOc1c(C=C(C#N)C#N)c2ccccc2n1CC	–	12.6 µM [rising, partial curve, poor fit]
CCc1nc2sc3c(c2c(=O)n1NC(=O)CCl)CCCC3	22.4 µM [falling, single point]	–
CCN(CCO)c1nc(SC)nc2c1sc1nc(-c3ccco3)c3c(c12)CCC3	17.8 µM [falling, single point]	35.5 µM [falling, single point]
Cc1ccnc(NC(=O)C2CCCN(S(=O)(=O)c3cnc[nH]3)C2)c1 (stereo not drawn)	–	28.2 µM [rising, single point]

Pulled one by one from above, two records:
SMILES	AC50 [1]	AC50 [2]
O=C(Oc1c(Cl)cc(Cl)c2cccnc12)c1cccs1	–	12.6 µM [rising, partial curve, poor fit]
Cc1nc(NC(=O)c2cc3c(s2)CCCCC3)sc1C(=O)N(C)C	–	14.1 µM [rising, single point]
